The values that follow come from PMC4449183, “Structural-Functional Analysis Reveals a Specific Domain Organization in Family GH20 Hexosaminidases” (PLoS ONE, 2015).

The target of assay [1] is Bifidobacterium bifidum lacto-N-biosidase, full length protein (37–1064), without the signal peptide and membrane anchor regions (Bifidobacterium bifidum) (UniProt B3TLD6). As to the kind of experiment: dynamic light scattering; Nano ZS Nanosizer, 632.8 nm, scattering angle 173 degrees, 25°C, protein in buffer A without dilution; both purified.
For assay [2] the target is unchanged. Briefly: SEC; single purified proteins on XK16/60 Superdex 200 in buffer A (Na2HPO4 20 mM, NaCl 150 mM, pH 7.5); both purified. Background: In gel filtration, larger molecules generally elute earlier.
Assay [3] concerns the target T1, Construct A (residues 40–528) of B. bifidum lacto-N-biosidase, GH20b-GH20-α (Bifidobacterium bifidum) (UniProt B3TLD6).
T1 sequence: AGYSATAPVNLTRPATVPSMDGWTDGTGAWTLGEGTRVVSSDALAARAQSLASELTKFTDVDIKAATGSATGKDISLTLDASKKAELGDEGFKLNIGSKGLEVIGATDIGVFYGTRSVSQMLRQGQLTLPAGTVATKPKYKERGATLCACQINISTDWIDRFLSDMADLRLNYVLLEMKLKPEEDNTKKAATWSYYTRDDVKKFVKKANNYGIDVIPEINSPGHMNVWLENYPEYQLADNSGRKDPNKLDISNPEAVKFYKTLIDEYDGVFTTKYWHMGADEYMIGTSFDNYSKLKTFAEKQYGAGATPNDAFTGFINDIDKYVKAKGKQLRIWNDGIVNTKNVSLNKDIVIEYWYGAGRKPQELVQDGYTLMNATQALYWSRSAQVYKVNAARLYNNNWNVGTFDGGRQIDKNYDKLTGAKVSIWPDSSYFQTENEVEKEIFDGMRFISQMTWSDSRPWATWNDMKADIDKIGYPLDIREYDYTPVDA
As to the kind of experiment: SEC; mixture of construct A (42 μM) with excess of construct F (245 μM) on Superdex 200 in buffer A, calibrated with protein standards; fractions analysed by SDS-PAGE and hydrolase activity; in duplicate; both purified.

These are yes or no findings as the source states them, for the method shown. Some entries that bind do so weakly or less than the wild type.

B1: Bifidobacterium bifidum lacto-N-biosidase, full length protein (37–1064), without the signal peptide and membrane anchor regions (enzyme, UniProt B3TLD6 37-1064)
chain: DSAAGYSATAPVNLTRPATVPSMDGWTDGTGAWTLGEGTRVVSSDALAARAQSLASELTKFTDVDIKAATGSATGKDISLTLDASKKAELGDEGFKLNIGSKGLEVIGATDIGVFYGTRSVSQMLRQGQLTLPAGTVATKPKYKERGATLCACQINISTDWIDRFLSDMADLRLNYVLLEMKLKPEEDNTKKAATWSYYTRDDVKKFVKKANNYGIDVIPEINSPGHMNVWLENYPEYQLADNSGRKDPNKLDISNPEAVKFYKTLIDEYDGVFTTKYWHMGADEYMIGTSFDNYSKLKTFAEKQYGAGATPNDAFTGFINDIDKYVKAKGKQLRIWNDGIVNTKNVSLNKDIVIEYWYGAGRKPQELVQDGYTLMNATQALYWSRSAQVYKVNAARLYNNNWNVGTFDGGRQIDKNYDKLTGAKVSIWPDSSYFQTENEVEKEIFDGMRFISQMTWSDSRPWATWNDMKADIDKIGYPLDIREYDYTPVDAGIYDIPQLKSISKGPWELITTPDGYYQMKDTVSGKCLALFTGSKHLDVVTQVGARPELRNCADVSVGQDQRNTANERNTQKWQIRADKDGKYTISPALTQQRLAIATGNEQNIDLETHRPAAGTVAQFPADLVSDNALFTLTGHMGMSATVDSKTVNPASPSKITVKVRAASNANTGDVTVTPVVPEGWEIKPGSVSLKSIPAGKAAIAYFNVVNTTGTGDATVQFKLTNTKTGEELGTTSVALTGSLTKDVEASDYAASSQETTGEHAPVGNAFDKNANTFWHSKYSNPSANLPHWLAFKASPGEGNKIAAITHLYRQDKLNGPAKNVAVYVVAASDANSVADVTNWGEPVATAEFPYTKELQTIALPNTIPSGDVYVKFQINDAWGLTETSAGVTWAAVAELAATAKATPVELTEPEQPKDNPEVTETPEATGVTVSGDGVANGALSLKKGTTAQLTAKVAPDDADQAVTWASSDDKVVTVDKTGKVTAVAKGVAKVTATTANGKSASVTVTVTEDSEVPGPTGPTEPTKPGTE
Consider B1, for which the binding entry in assay [1] and in assay [2] was “no binding” each time.

B2: Construct F (546–776) of B. bifidum lacto-N-biosidase, the single lectin domain (domain or fragment, Bifidobacterium bifidum, UniProt B3TLD6 546-776, looked up)
chain: LITTPDGYYQMKDTVSGKCLALFTGSKHLDVVTQVGARPELRNCADVSVGQDQRNTANERNTQKWQIRADKDGKYTISPALTQQRLAIATGNEQNIDLETHRPAAGTVAQFPADLVSDNALFTLTGHMGMSATVDSKTVNPASPSKITVKVRAASNANTGDVTVTPVVPEGWEIKPGSVSLKSIPAGKAAIAYFNVVNTTGTGDATVQFKLTNTKTGEELGTTSVALTGSL
In the case of B2, the binding entry in assay [3] is reported as “binds”.
